Values from PubChem BioAssay AID652243 (Drosophila RNAi Screening Center, 2013).
Test: 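Fly regulators of androgen-dependent reporter output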 (primary screen). System: Drosophila S2R+ cells. Knock-down reagent: long dsRNA against Drosophila genes. Timing: 72 h (48 h, then 24 h hormone). Challenge: synthetic androgen R1881 at 10 nM for 24 h. Read-out: 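Per-well raw luminescence of the androgen-driven firefly reporter and of the Renilla control, two replicates each, without normalisation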. Direction: firefly reporter light: higher = more light from androgen-responsive reporter; Renilla control light: higher = more constitutive control signal (cell number, transfection). Rule for the call: 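Hit when the log firefly-to-Renilla ratio dropped or increased by a fixed fold versus the mean of GFP or LacZ controls across duplicate plates; lowering cut given as 1.5 and as 3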. Calls: active = hit: reporter lowered or raised; inactive = no hit.
The deposit covers about 24,000 reagents; this is an unselected part of those that have a named target and a result. Of all reagents, 246 (1%) were called active. 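Plates not normalised; calls are printed but the firefly/Renilla ratio behind them is not deposited; fold cut for lowering reported inconsistently.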 Raw values are not corrected between plates. Unmarked entries are inactive. Reagents against one gene are numbered here. A plus sign joins genes that one reagent is predicted to hit. Not given: the amount of reagent.

| target | reagent no. | firefly reporter light, replicate 1 | firefly reporter light, replicate 2 | Renilla control light, replicate 1 | Renilla control light, replicate 2 |
| --- | --- | --- | --- | --- | --- |
| fal (falten) | 1 | 26184 | 14828 | 2.65e5 | 1.85e5 |
| ph-p (polyhomeotic proximal) | 1 | 3.26e5 | 3.67e5 | 2.75e6 | 3.17e6 |
| CG46385 | 1 | 2.41e5 | 2.59e5 | 1.29e6 | 1.22e6 |
| CG46385 | 2 | 3.75e5 | 3.65e5 | 8.04e5 | 6.55e5 |
| HP1c (Heterochromatin Protein 1c) | 1 | 3.40e5 | 2.85e5 | 2.51e6 | 2.50e6 |
| HP1c (Heterochromatin Protein 1c) | 2 | 3.07e5 | 3.25e5 | 4.45e5 | 8.51e5 |
| CG13694 | 1 | 67306 | 1.08e5 | 4.17e5 | 5.49e5 |
| ps (pasilla) | 1 | 1.02e5 | 60295 | 1.45e6 | 2.16e6 |
| ps (pasilla) | 2 | 1.81e5 | 1.93e5 | 2.22e6 | 2.26e6 |
| ps (pasilla) | 3 | 4.44e5 | 4.69e5 | 1.41e6 | 1.61e6 |
| ps (pasilla) | 4 | 6.15e5 | 4.16e5 | 1.18e6 | 1.18e6 |
| ps (pasilla) | 5 | 7.09e5 | 9.73e5 | 1.24e6 | 1.24e6 |
| Son (Son RNA binding protein) | 1 | 1.35e5 | 91754 | 2.62e6 | 1.40e6 |
| Oatp26F (Organic anion transporting polypeptide 26F) | 1 | 1.57e5 | 1.51e5 | 1.35e6 | 1.00e6 |
| Oatp26F (Organic anion transporting polypeptide 26F) | 2 | 2.62e5 | 3.44e5 | 1.78e6 | 1.80e6 |
| Oatp26F (Organic anion transporting polypeptide 26F) | 3 | 1.83e5 | 2.39e5 | 1.58e6 | 1.68e6 |
| Oatp26F (Organic anion transporting polypeptide 26F) | 4 | 2.79e5 | 2.49e5 | 5.54e5 | 6.25e5 |
| CG15478 | 1 | 3.52e5 | 3.52e5 | 3.50e6 | 3.55e6 |
| CG15478 | 2 | 5.24e5 | 7.10e5 | 7.83e5 | 6.46e5 |
| CG15362 | 1 | 1.18e5 | 1.31e5 | 9.97e5 | 1.06e6 |
| heix (heixuedian) | 1 | 8.19e5 | 9.06e5 | 8.16e5 | 1.16e6 |
| CG31975 + ovm | 1 | 1.12e5 | 79986 | 5.93e5 | 5.17e5 |
| Slc25A46a | 1 | 1.12e5 | 90221 | 9.01e5 | 8.74e5 |
| hkb (huckebein) | 1 | 4.20e5 | 7.66e5 | 1.31e6 | 2.04e6 |
| hkb (huckebein) | 2 | 5.18e5 | 3.72e5 | 3.97e5 | 4.01e5 |
| CG9171 | 1 | 7.29e5 | 6.61e5 | 2.02e6 | 2.33e6 |
| CG9171 | 2 | 4.92e5 | 3.89e5 | 3.07e6 | 3.95e6 |
| CG9171 | 3 | 1.02e6 | 7.77e5 | 1.41e6 | 1.42e6 |
| CG18809 | 1 | 4.76e5 | 1.82e5 | 1.59e6 | 5.25e5 |
| CG18809 | 2 | 8.02e5 | 6.38e5 | 8.26e5 | 5.72e5 |
| CG42450 | 1 | 2.34e5 | 1.32e5 | 5.39e5 | 2.48e5 |
| CG42450 | 2 | 5.68e5 | 1.02e6 | 1.45e6 | 1.66e6 |
| CG15651 | 1 | 2.00e5 | 1.87e5 | 1.40e6 | 1.51e6 |
| Ugt35E2 (UDP-glycosyltransferase family 35 member E2) | 1 | 1.61e5 | 1.48e5 | 1.79e6 | 2.02e6 |
| Ugt35E2 (UDP-glycosyltransferase family 35 member E2) | 2 | 3.43e5 | 3.70e5 | 8.47e5 | 8.33e5 |
| CG7920 | 1 | 1.70e5 | 1.22e5 | 1.30e6 | 1.28e6 |
| CG7920 | 2 | 5.50e5 | 5.74e5 | 1.01e6 | 1.10e6 |

Reformatted: results already given
CG31975 + ovm
- firefly reporter light, replicate 1: 1.12e5
- firefly reporter light, replicate 2: 79986
- Renilla control light, replicate 1: 5.93e5
- Renilla control light, replicate 2: 5.17e5

Slc25A46a
- firefly reporter light, replicate 1: 1.12e5
- firefly reporter light, replicate 2: 90221
- Renilla control light, replicate 1: 9.01e5
- Renilla control light, replicate 2: 8.74e5

hkb (huckebein) #1
- firefly reporter light, replicate 1: 4.20e5
- firefly reporter light, replicate 2: 7.66e5
- Renilla control light, replicate 1: 1.31e6
- Renilla control light, replicate 2: 2.04e6

hkb (huckebein) #2
- firefly reporter light, replicate 1: 5.18e5
- firefly reporter light, replicate 2: 3.72e5
- Renilla control light, replicate 1: 3.97e5
- Renilla control light, replicate 2: 4.01e5

CG9171 #1
- firefly reporter light, replicate 1: 7.29e5
- firefly reporter light, replicate 2: 6.61e5
- Renilla control light, replicate 1: 2.02e6
- Renilla control light, replicate 2: 2.33e6

CG9171 #2
- firefly reporter light, replicate 1: 4.92e5
- firefly reporter light, replicate 2: 3.89e5
- Renilla control light, replicate 1: 3.07e6
- Renilla control light, replicate 2: 3.95e6

CG9171 #3
- firefly reporter light, replicate 1: 1.02e6
- firefly reporter light, replicate 2: 7.77e5
- Renilla control light, replicate 1: 1.41e6
- Renilla control light, replicate 2: 1.42e6

CG18809 #1
- firefly reporter light, replicate 1: 4.76e5
- firefly reporter light, replicate 2: 1.82e5
- Renilla control light, replicate 1: 1.59e6
- Renilla control light, replicate 2: 5.25e5

CG18809 #2
- firefly reporter light, replicate 1: 8.02e5
- firefly reporter light, replicate 2: 6.38e5
- Renilla control light, replicate 1: 8.26e5
- Renilla control light, replicate 2: 5.72e5

CG42450 #1
- firefly reporter light, replicate 1: 2.34e5
- firefly reporter light, replicate 2: 1.32e5
- Renilla control light, replicate 1: 5.39e5
- Renilla control light, replicate 2: 2.48e5

CG42450 #2
- firefly reporter light, replicate 1: 5.68e5
- firefly reporter light, replicate 2: 1.02e6
- Renilla control light, replicate 1: 1.45e6
- Renilla control light, replicate 2: 1.66e6

CG15651
- firefly reporter light, replicate 1: 2.00e5
- firefly reporter light, replicate 2: 1.87e5
- Renilla control light, replicate 1: 1.40e6
- Renilla control light, replicate 2: 1.51e6

Ugt35E2 (UDP-glycosyltransferase family 35 member E2) #1
- firefly reporter light, replicate 1: 1.61e5
- firefly reporter light, replicate 2: 1.48e5
- Renilla control light, replicate 1: 1.79e6
- Renilla control light, replicate 2: 2.02e6

Further records:
| target | reagent no. | firefly reporter light, replicate 1 | firefly reporter light, replicate 2 | Renilla control light, replicate 1 | Renilla control light, replicate 2 |
| --- | --- | --- | --- | --- | --- |
| bab2 (bric a brac 2) | 1 | 26219 | 30523 | 7.55e5 | 6.56e5 |
| bab2 (bric a brac 2) | 2 | 3.41e5 | 3.30e5 | 5.63e5 | 5.38e5 |
| mRpL23 (mitochondrial ribosomal protein L23) | 1 | 1.10e5 | 82248 | 1.21e6 | 1.47e6 |
| Pex11c (Peroxin 11c) | 1 | 2.42e5 | 2.64e5 | 2.80e6 | 3.28e6 |
| rdgB (retinal degeneration B) | 1 | 2.87e5 | 1.89e5 | 2.31e6 | 3.07e6 |
| rdgB (retinal degeneration B) | 2 | 4.41e5 | 4.27e5 | 6.14e5 | 7.71e5 |
| SoYb | 1 | 1.75e5 | 2.10e5 | 8.91e5 | 1.15e6 |
| Cdc37 (Cell division cycle 37) | 1 | 55573 | 57801 | 6.34e5 | 1.06e6 |
| Cdc37 (Cell division cycle 37) | 2 | 2.48e5 | 1.98e5 | 3.62e5 | 6.90e5 |
| CG2121 | 1 | 8.98e5 | 8.25e5 | 1.47e6 | 1.56e6 |
| CG2121 | 2 | 3.77e5 | 3.26e5 | 1.93e6 | 1.72e6 |
| CG1971 | 1 | 57045 | 38700 | 5.13e5 | 3.59e5 |
| CG1971 | 2 | 5.98e5 | 1.29e6 | 8.92e5 | 1.53e6 |
| Mst36Fa (Male-specific transcript 36Fa) | 1 | 7.59e5 | 6.24e5 | 3.30e6 | 2.63e6 |
| Mst36Fa (Male-specific transcript 36Fa) | 2 | 5.80e5 | 4.99e5 | 6.90e5 | 7.78e5 |
| lost | 1 | 1.11e5 | 1.13e5 | 2.22e5 | 2.49e5 |
| lost | 2 | 22161 | 23261 | 2.05e5 | 1.99e5 |
| lost | 3 | 1.24e6 | 1.31e6 | 1.13e6 | 1.13e6 |
| CG33476 | 1 | 9.06e5 | 1.23e6 | 1.60e6 | 2.51e6 |
| loopin-1 | 1 | 8.19e5 | 9.90e5 | 1.77e6 | 1.57e6 |
| loopin-1 | 2 | 8.55e5 | 9.69e5 | 7.72e5 | 9.35e5 |
| CG2712 | 1 | 1.41e5 | 69747 | 9.64e5 | 6.33e5 |
| CG13793 | 1 | 2.84e5 | 2.33e5 | 1.69e6 | 1.86e6 |
| CG13793 | 2 | 3.10e5 | 5.33e5 | 1.08e6 | 1.55e6 |
| zen2 (zerknullt-related) | 1 | 66634 | 50469 | 9.47e5 | 1.17e6 |
| zen2 (zerknullt-related) | 2 | 5.12e5 | 3.84e5 | 1.85e6 | 1.59e6 |
| Tsp66A + CG42661 + CG42660 | 1 | 2.03e5 | 2.34e5 | 2.49e6 | 2.70e6 |
| CG31676 | 1 | 1.52e5 | 1.73e5 | 1.95e6 | 2.08e6 |
| CG13545 | 1 | 4.83e5 | 4.64e5 | 2.91e6 | 2.01e6 |
| CG13545 | 2 | 1.07e6 | 1.03e6 | 1.33e6 | 1.18e6 |
| PDZ-GEF (PDZ domain-containing guanine nucleotide exchange factor) | 1 | 1.21e5 | 1.31e5 | 1.60e6 | 1.34e6 |
| CG4631 | 1 | 3.63e5 | 4.45e5 | 2.05e6 | 2.65e6 |
| CG4631 | 2 | 5.42e5 | 4.98e5 | 2.20e6 | 1.71e6 |
| CG14391 | 1 | 43038 | 57240 | 9.65e5 | 1.54e6 |
| CG14391 | 2 | 3.85e5 | 6.29e5 | 8.51e5 | 1.16e6 |
| Jabba | 1 | 1.06e6 | 1.28e6 | 1.53e6 | 2.17e6 |
| Jabba | 2 | 5.93e5 | 4.39e5 | 1.33e6 | 9.13e5 |
